According to patent publication US20240368668A1, “SUBSTRATES AND BIOMARKERS OF ADAMTS7” (The Broad Institute, Inc., priority 2021, published 2024):

Assays:
[1] = test system: mouse ADAMTS7; assay: TMT10 TAILS N-terminomics, HUVEC experiment (process replicates, trypsin/AspN digest); assay type: cell-based, human; settings: HUVEC TAILS experiment; total MS intensity of the N-terminal (neo-N-terminal) peptide identified by TAILS_id
From the text: (§1) ADAMTS7 Expression, Cell Culture and Preparation of the Secreted Proteins—Full-length mouse Adamts7 1-1857 (Uniprot Q68SA9, WT or E373Q catalytic mutant) with a carboxyl terminal 3xFLAG tag was used to generate custom adenoviruses as previously described. Adeno-CMV-Luciferase (Ad-Luc) from Vector Biolabs was used as a negative control. Human Coronary Artery Smooth Muscle Cells (HCA-SMC) were obtained from Lonza and expanded in Lonza SmGM-2 media in 15 cm tissue culture plates. Twenty-four hours before media collection, near confluent plates were transduced with 50 MOI adenovirus and switched to Lonza Basal SM media with volumes of 20 ml per 15 cm plate. Expression of the Flag tagged ADAMTS7 was confirmed from the media using western blot and detected using the anti-Flag M2-HRP antibody (Sigma, A8592). Collected media was processed by adding protease inhibitors (1 mM EDTA and 1 mM PMSF) and clarified by 500 g×5 min spin at 4 C to pellet cell debris. Cell media supernatants were then passed through a 0.22 um filter and kept chilled. Processed media was then concentrated 50-100× using 3 kDa Centricon Plus-70 filter unit, spun at 3,500 g×60 min at 4 C. Approximately 10% of the processed, concentrated media was set aside for total secretome proteolytic analysis. The remaining 90% of the processed, concentrated media was buffer exchanged into 50 mM HEPES pH 8.0, 150 mM NaCl (2×50 ml) using the 3 kDa Centricon Plus-70 filter unit and concentrated to >2 mg/ml to serve as input for the TAILS experiment. Secretome and TAILS input samples were stored at −80° C.
(§2) For the first experiment, referred to as SMC1, 120 ml of media from 6×15 cm dishes was pooled from each condition (Luc, WT, EQ) and processed to produce three separate inputs for the TAILS experiment. Luc, WT and EQ inputs from the SMC1 experiment were each divided into triplicate 400 ug samples to generate technical replicate TAILS data. For the second experiment, referred to as SMC2, media was processed separately in triplicate for each condition (Luc1, Luc2, Luc3, WT1, WT2, WT3, EQ1, EQ2, EQ3) using 60 ml of media from 3×15 cm dishes for each process replicate. Inputs from the SMC2 experiment used process replicates of 300 ug each to generate TAILS data. The third experiment used input from cultured Human umbilical vein endothelial cells (HUVEC) from Lifeline Cell Technology grown in VascuLife Media and transduced in Lifeline Basal EC (+bFGF2 10 ng/ml). The HUVEC experiment used the same strategy as the SMC2 experiment, with 40 ml of media from 2×15 cm dishes for each process replicate and used 200 ug each to generate TAILS data. Inputs for process replicate experiments were restricted to the lowest concentration from the 9 parallel samples for SMC2 or HUVEC.
(§3) TMT10 isotopic labeling and negative selection of non-labeled peptides-Sample preparation was performed based on the TAILS protocol from the Overall lab with some modifications. From a single experiment, nine parallel protein samples in 50 mM HEPES pH 8.0, 150 mM NaCl were separately denatured with guanidinium chloride (Sigma, G4505) to reach a final concentration of 2.5M guanidinium chloride and 250 mM HEPES and incubated at 65° C. for 15 min. Reduction was achieved through addition of tris(2-carboxylethyl) phosphine (TCEP) at a final concentration of […] and incubated at 65° C. for 45 min. Alkylation reaction was performed with addition of iodoacetamide (IAA, Sigma, A3221) to a final concentration of 10 mM IAA for 15 min at room temperature in the dark. Following denaturation, reduction and alkylation steps, ten percent of each of the nine parallel protein samples was removed and combined to serve as a pooled reference. Isobaric tags were added to free amine groups using the TMT10plex Isobaric Mass Tagging Kit (ThermoFisher, 90113) with TMT channels randomly assigned to the nine samples and TMT 131 assigned to the pooled reference. […]

[2] = test system: mouse ADAMTS7; assay: TMT10 TAILS N-terminomics, SMC1 experiment (Ad-mADAMTS7 WT vs EQ vs Luc, technical replicates, trypsin digest); assay type: cell-based; settings: for SMC1 TAILS.total Intensity: TAILS HC Overlap, total intensity of the peptide; for TAILS_SMC_Scaleup_fxns_mATS7i: mouse ADAMTS7
How it was run: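 Full-length mouse ADAMTS7 (WT or E373Q mutant, C-terminal 3xFLAG) or luciferase was transduced via adenovirus, 50 MOI, into HCA-SMC (SMC1, SMC2) or HUVEC. SMC1: pooled media, technical triplicates 400 ug; SMC2: process triplicates 300 ug; HUVEC: process triplicates 200 ug, bFGF2 10 ng/ml.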

[3] = test system: mouse ADAMTS7; assay: TMT10 TAILS N-terminomics, SMC2 experiment (process replicates, trypsin/AspN digest); assay type: cell-based; settings: for SMC2 TAILS.total Intensity: SMC2 experiment, total intensity of the N-terminal (TAILS) peptide
From the text: as §1, §2, §3

[4] = TAILS N-terminal peptide signal, SMC scale-up fractions, label = TAILS_id (gene symbol_StartAA)
[5] = SMC rd2 TAILS, AspGluN search, total spectral intensity of the N-terminal peptide (TAILS_id = gene_StartAA cleavage site)
[6] = total intensity of the N-terminal peptide spectra, SMC rd2 TAILS fractions, AspN/GluC search
[7] = TAILS N-terminal peptide identified in SMC conditioned media (scale-up, fractions), value listed per TAILS_id (protein_StartAA)

| Substance | ATS7_HUVEC_TAILS_frxns_mATS7inDB_AspGluN.total Intensity [1] | SMC1 TAILS.total Intensity [2] | SMC2 TAILS.total Intensity [3] | other results |
| --- | --- | --- | --- | --- |
| MCFD2_55 (HLEGVINKPEA; listed as Homo sapiens) | 2.54E+08 |  |  |  |
| LTBP2_129 (QQQPAPR; listed as Homo sapiens) | 4.46E+09 |  |  |  |
| HSPG2_2333 (LAYPAGSTQPIR; listed as Homo sapiens) |  | 5.74E+07 | 3.02E+08 | TAILS_SMC_Scaleup_fxns_mATS7i [2, 4]: 5.74E+07; ATS7_SMC_rd2_TAILS_frxns_matS7inDB_AspGluN_retry.totalIntensity [3, 5]: 3.02E+08 |
| LTBP3_205 (HAAFLVPLGPGQISA; listed as Homo sapiens) | 8.70E+07 |  |  |  |
| COL1A2_1028 (LQGLPGIAGHHGDQGAPGSVGPAGPR; listed as Homo sapiens) |  | 1.05E+09 | 9.44E+08 | TAILS_SMC_Scaleup_fxns_mATS7i [2, 4]: 1.05E+09; ATS7_SMC_rd2_TAILS_frxns_matS7inDB_AspGluN_retry.totalIntensity [3, 6]: 9.44E+08 |
| COL1A2_866 (LLGAPGILGLPGSR; listed as Homo sapiens) |  | 7.88E+09 | 4.62E+10 | TAILS_SMC_Scaleup_fxns_mATS7i [2, 4]: 7.88E+09; ATS7_SMC_rd2_TAILS_frxns_matS7inDB_AspGluN_retry.totalIntensity [3, 6]: 4.62E+10 |
| PZP_578 (HAHLQVAAAPQSLCALR; listed as Homo sapiens) | 5.67E+07 |  |  |  |
| THBS1_630 (FGQGVEHATANK; listed as Homo sapiens) | 4.11E+08 |  |  |  |
| COL1A2_270 (VGNAGPAGPAGPR; listed as Homo sapiens) |  | 5.91E+07 | 2.57E+09 | TAILS_SMC_Scaleup_fxns_mATS7i [2, 4]: 5.91E+07; ATS7_SMC_rd2_TAILS_frxns_matS7inDB_AspGluN_retry.totalIntensity [3, 6]: 2.57E+09 |
| FN1_293 (VYQPQPHPQPPPYGHCVT; listed as Homo sapiens) | 7.01E+10 |  |  |  |
| LOXL2_38 (QQPAPEYHQPQAPANVAKIQLR; N-terminal label (q); listed as Homo sapiens) |  | 2.79E+08 | 1.65E+08 | TAILS_SMC_Scaleup_fxns_mATS7i [2, 7]: 2.79E+08; ATS7_SMC_rd2_TAILS_frxns_matS7inDB_AspGluN_retry.totalIntensity [3, 5]: 1.65E+08 |
| LTBP2_253 (GEGTLAR; listed as Homo sapiens) | 3.80E+10 |  |  |  |
| PSAP_301 (LVEPIKKH; listed as Homo sapiens) | 8.06E+08 |  |  |  |
| LTBP3_221 (VQAPPPVVNVR; listed as Homo sapiens) | 6.41E+08 |  |  |  |
| LOXL1_219 (VASAGVIYPYQPR; listed as Homo sapiens) |  | 2.12E+07 | 4.27E+08 | TAILS_SMC_Scaleup_fxns_mATS7i [2, 7]: 2.12E+07; ATS7_SMC_rd2_TAILS_frxns_matS7inDB_AspGluN_retry.totalIntensity [3, 5]: 4.27E+08 |
| COL1A2_960 (AGAPGPHGPVGPAGKHGNR; listed as Homo sapiens) |  | 4.57E+08 | 3.12E+09 | TAILS_SMC_Scaleup_fxns_mATS7i [2, 4]: 4.57E+08; ATS7_SMC_rd2_TAILS_frxns_matS7inDB_AspGluN_retry.totalIntensity [3, 6]: 3.12E+09 |
| ERAP2_718 (ISENLKR; listed as Homo sapiens) | 3.67E+08 |  |  |  |
